Data on one substance can be found in PMC11500499, “Molecular dissection of the chromosome partitioning protein RocS and regulation by phosphorylation”.

Amino acid sequences for entries named in this document (tags omitted).
UniProt A0A0H2ZKY7: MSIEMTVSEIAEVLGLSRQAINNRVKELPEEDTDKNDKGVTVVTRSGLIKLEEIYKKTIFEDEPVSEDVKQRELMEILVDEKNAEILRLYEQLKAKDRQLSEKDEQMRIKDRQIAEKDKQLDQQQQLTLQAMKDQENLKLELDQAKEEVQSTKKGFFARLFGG

The target of the assay is RocS (Regulator of Chromosome Segregation), full length, fused to the T18 or T25 fragment of CyaA (S. pneumoniae R6). Kind of assay: two-hybrid; bacterial adenylate cyclase two-hybrid (BACTH, Euromedex kit) in E. coli BTH101; N-terminal T18 and T25 fusions co-transformed; LB-agar with ampicillin, kanamycin, IPTG 0.5 mM and X-gal 100 µg/mL; room temperature; photos at 24, 48 and 72 h, blue colour = interaction.

Results are given in words; binding and its absence hold for the method and conditions named. A result given as binding can be weak or reduced; the word gives no strength.

As for “RocS (Regulator of Chromosome Segregation), full length, fused to the T18 or T25 fragment of CyaA (from UniProt A0A0H2ZKY7 1-163)”, the binding result is “binds”.
